Measurements taken from US20230235004A1.
Substitutions are numbered along the chain they refer to. No constants are given. Whether binding was seen depends on the method and setting. Some results given as binding are weak or reduced against the parent protein; the word gives no strength.

Chains of the proteins cited; added tags and fusions are not shown. Lines headed by an entry give the natural chain unless they say otherwise; changes in a name come on top. Residues count along the entry.
UniProt Q13477: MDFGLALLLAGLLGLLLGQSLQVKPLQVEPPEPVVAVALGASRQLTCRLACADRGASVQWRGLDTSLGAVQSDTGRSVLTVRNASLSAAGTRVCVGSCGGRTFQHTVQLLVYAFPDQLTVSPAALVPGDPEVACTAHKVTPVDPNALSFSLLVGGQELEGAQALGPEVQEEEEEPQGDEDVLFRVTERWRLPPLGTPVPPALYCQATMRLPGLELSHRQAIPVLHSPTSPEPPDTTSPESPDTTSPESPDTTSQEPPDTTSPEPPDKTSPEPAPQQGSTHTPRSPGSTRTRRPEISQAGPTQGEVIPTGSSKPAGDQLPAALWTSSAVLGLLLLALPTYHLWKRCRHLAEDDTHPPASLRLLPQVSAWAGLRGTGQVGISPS
human MAdCAM expressed on cells: residues 19-382 of Q13477
human MAdCAM protein: residues 19-317 of Q13477
UniProt Q61826: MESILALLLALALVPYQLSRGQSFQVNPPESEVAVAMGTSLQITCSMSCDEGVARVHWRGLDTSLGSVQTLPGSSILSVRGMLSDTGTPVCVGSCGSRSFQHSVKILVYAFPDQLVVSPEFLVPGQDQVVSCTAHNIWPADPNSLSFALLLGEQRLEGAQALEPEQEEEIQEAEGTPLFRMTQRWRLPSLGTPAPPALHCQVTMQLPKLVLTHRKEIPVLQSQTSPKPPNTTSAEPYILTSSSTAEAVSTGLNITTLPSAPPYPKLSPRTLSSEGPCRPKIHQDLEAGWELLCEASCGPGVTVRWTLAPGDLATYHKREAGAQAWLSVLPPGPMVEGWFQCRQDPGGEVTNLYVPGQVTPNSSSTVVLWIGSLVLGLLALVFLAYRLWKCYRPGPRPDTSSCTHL
mouse MAdCAM expressed on cells: residues 22-405 of Q61826
recombinant mouse MAdCAM-1: residues 22-364 of Q61826

B1: MAdCAM antibody Table 1 clone 25 (scFv)
scFv: QVQLVQSGAEVKKPGASVKVSCKASGYTLTTWYMYWVRQAPGQGLEWMGWINPNRGATNYAQKFQGRVTMTRDTSTSTVYMELSSLRSEDTAVYYCAKGDLWGAMDVWGQGTLVTVSSGGGGSGGGGSGGGGSGGGGSDIQMTQSPSSLSASVGDRVTITCRASDNIGSWLAWYQQKPGKAPKLLIYAASSLQSGVPSRFSGSGSGTDFTLTISSLQPEDFATYYCQQGYSTPPTFGQGTKVEIK
B2: MAdCAM antibody Table 1 clone 30 (scFv)
scFv: B1 scFv
B3: MAdCAM antibody Table 1 clone 60 (scFv)
scFv: EVQLLESGGGLVQPGGSLRLSCAASGFTFDDYTMHWVRQAPGKGLEWVSDISGSGGSTYYADSVKGRFTISRDNSKNTLYLQMNSLRAEDTAVYYCAKDVVVAGTPLHFDYWGQGTLVTVSSGGGGSGGGGSGGGGSGGGGSDIQMTQSPSSLSASVGDRVTITCQASQDISNYLNWYQQKPGKAPKLLIYAASYLQSGVPSRFSGSGSGTDFTLTISSLQPEDFATYYCQQAHNYPITFGQGTRLEIK
B4: MAdCAM Antibody Table 2 clone 2 (antibody, V domains shown)
VH: QVQLVQSGAEVKKPGASVKVSCKASGYPFIGYYLHWVRQAPGQGLEWMGIINPSGGSTSYAQKFQGRVTMTRDTSTSTVYMELSSLRSEDTAVYYCAREGRLSYGMDAWGQGTLVTVSS
VL: DIQMTQSPSSLSASVGDRVTITCRASQSISSYLAWYQQKPGKAPKLLIYGASTLESGVPSRFSGSGSGTDFTLTISSLQPEDFATYYCQQTWGPPFTFGQGTKLEIK
B5: MAdCAM Antibody Table 2 clone 3 (antibody, V domains shown)
VH: B4 VH with Y32Q
VL: B4 VL
B6: MAdCAM Antibody Table 2 clone 4 (antibody, V domains shown)
VH: QVQLVQSGAEVKKPGASVKVSCKASGGTFSSYAISWVRQAPGQGLEWMGSINPSGDTTSYAQKFQGRVTMTRDTSTSTVYMELSSLRSEDTAVYYCAKDKAQWLVGYFDYWGQGTLVTVSS
VL: DIQMTQSPSSLSASVGDRVTITCQASQDISNSLNWYQQKPGKAPKLLIYAASSLQSGVPSRFSGSGSGTDFTLTISSLQPEDFATYYCQQSYSSVITFGQGTKVEIK
B7: MAdCAM Antibody Table 2 clone 5 (antibody, V domains shown)
VH: EVQLLESGGGLVQPGGSLRLSCAASGFTFSSYWMHWVRQAPGKGLEWVSSISPGGSNIDYADSVKGRFTISRDNSKNTLYLQMNSLRAEDTAVYYCAREVQLSHYDYWGQGTLVTVSS
VL: B6 VL with Q24R, D28G, N34A, A50G, S91A, Y92N, S94F, V95P, I96F
B8: MAdCAM Antibody Table 2 clone 6 (antibody, V domains shown)
VH: EVQLLESGGGLVQPGGSLRLSCAASGFTFNNYAFHWVRQAPGKGLEWVSRINSYGTSTTYADSVKGRFTISRDNSKNTLYLQMNSLRAEDTAVYYCAREGPVAGYWYFDLWGQGTLVTVSS
VL: DIQMTQSPSSLSASVGDRVTITCRASQIIGTNLAWYQQKPGKAPKLLIYGASSLQSGVPSRFSGSGSGTDFTLTISSLQPEDFATYYCQQSYRLPFTFGQGTKVEIK
B9: MAdCAM Antibody Table 2 clone 32 (antibody, V domains shown)
VH: QVQLVQSGAEVKKPGASVKVSCKASGYTLTTWYMYWVRQAPGQGLEWMGWINPNRGATNYAQKFQGRVTMTRDTSTSTVYMELSSLRSEDTAVYYCAKGDLWGAMDVWGQGTLVTVSS
VL: B8 VL with Q27D, I28N, T31S, N32W, G50A, S91G, R93S, L94T, F96P
B10: MAdCAM Antibody Table 2 clone 33 (antibody, V domains shown)
VH: B9 VH with L113T
VL: B8 VL with Q27D, I28N, T31S, N32W, G50A, S91G, R93S, L94T, F96P
B11: MAdCAM Antibody Table 2 clone 35 (antibody, V domains shown)
VH: QVQLVQSGAEVKKPGASVKVSCKASGYTFTGYYIHWVRQAPGQGLEWMGWMNPNSGNTGYAQKFQGRVTMTRDTSTSTVYMELSSLRSEDTAVYYCARDPGFLGYSSGGSSYDGWFDPWGQGTLVTVSS
VL: B4 VL with A34H, G50A, T53S, E55Q, T91S, W92Y, G93T, P94A, F96Y
B12: MAdCAM Antibody Table 2 clone 40 (antibody, V domains shown)
VH: B9 VH
VL: B8 VL with Q27D, I28N, T31S, N32W, G50A, S91G, R93S, L94T, F96P
B13: MAdCAM antibody Table 1 clone 7 (scFv)
scFv: QVQLVQSGAEVKKPGASVKVSCKASGYTFTGYHIHWVRQAPGQGLEWMGIINPSGGSTIYAQKFQGRVTMTRDTSTSTVYMELSSLRSEDTAVYYCAKDWSSWYLGPFDYWGQGTLVTVSSGGGGSGGGGSGGGGSGGGGSDIQMTQSPSSLSASVGDRVTITCRASQNISSSLNWYQQKPGKAPKLLIYAASSLQSGVPSRFSGSGSGTDFTLTISSLQPEDFATYYCQQSYTTPYTFGQGTKVEIK
B14: MAdCAM antibody Table 1 clone 8 (scFv)
scFv: EVQLLESGGGLVQPGGSLRLSCAASGFMFGDYAMHWVRQAPGKGLEWVSAISGSGGSTYYADSVKGRFTISRDNSKNTLYLQMNSLRAEDTAVYYCAKDLVVAGIWYFDLWGRGTLVTVSSGGGGSGGGGSGGGGSGGGGSDIQMTQSPSSLSASVGDRVTITCRASQGISNNLNWYQQKPGKAPKLLIYDASSLESGVPSRFSGSGSGTDFTLTISSLQPEDFATYYCQQTHSFPSTFGQGTKLEIK
B15: MAdCAM antibody Table 1 clone 9 (scFv)
scFv: EVQLLESGGGLVQPGGSLRLSCAASGFTFSDYYMNWVRQAPGKGLEWVSVIGESGGSTYYADSVKGRFTISRDNSKNTLYLQMNSLRAEDTAVYYCAADPVSRWPKHGGGDYWGQGTLVTVSSGGGGSGGGGSGGGGSGGGGSDIQMTQSPSSLSASVGDRVTITCRASQGISSSLAWYQQKPGKAPKLLIYAASTLQSGVPSRFSGSGSGTDFTLTISSLQPEDFATYYCQQSYSTPWTFGQGTKVEIK

How the values were obtained:
[1] = target: human MAdCAM expressed on cells (human) (UniProt Q13477); test: cell binding
[2] = target: mouse MAdCAM expressed on cells (mouse) (UniProt Q61826); test: cell binding
[3] = target: human MAdCAM protein (human) (UniProt Q13477); test: Octet
[4] = target: recombinant mouse MAdCAM-1 (mouse) (UniProt Q61826); test: Octet

Row | Binder | binding [1] | binding [2] | binding [3] | binding [4]
1 | B1 | binds |  |  | 
2 | B2 | binds |  |  | 
3 | B3 | binds | binds | binds | 
4 | B4 | binds | binds |  | 
5 | B5 | binds | binds |  | 
6 | B6 | binds | binds | binds | binds
7 | B7 | binds | binds | binds | binds
8 | B8 | binds |  | binds | 
9 | B9 | binds |  |  | 
10 | B10 | binds |  |  | 
11 | B11 | binds |  |  | 
12 | B12 | binds |  |  | 
13 | B13 | binds | binds | binds | binds
14 | B14 | binds |  |  | 
15 | B15 | binds | binds | binds | binds
